Test results reported in the supplement of paper PMC11348887.
Structures can show the parent of a compound that is named as a salt. The list shows a part of the results. Most values lie at the level of the controls, where differences are scatter.

The compounds below were run on hPSC-derived cortical neurons (WA09) (assay: total neurite length per nucleus (MAP2) z-score; higher = more neurite growth). Conditions: 5 µM; treatment: days 7-14 after plating, readout day 21.
`Cc1nc2n(c(=O)c1CCN1CCC(c3noc4cc(F)ccc34)CC1)CCCC2` [Risperidone] was tested, and the “total neurite length per nucleus (z-score)” value was -0.156.
In the case of `CC/C(=C(\c1ccccc1)c1ccc(OCCN(C)C)cc1)c1ccccc1` [Tamoxifen Citrate], the “total neurite length per nucleus (z-score)” value is reported as -1.85.
For `CN(C)Cc1ccc(S(=O)(=O)n2ccc(/C=C/C(=O)NO)c2)cc1` [Resminostat], the “total neurite length per nucleus (z-score)” value was 0.146.
`Cn1sc(=O)n(Cc2ccccc2)c1=O` was tested, and the “total neurite length per nucleus (z-score)” value was -0.612.
With `CC1CCN(CC[C@H]2CCCN2S(=O)(=O)c2cccc(O)c2)CC1` the “total neurite length per nucleus (z-score)” value was -0.556.
`CC(C)(O)[C@H]1CC[C@@](C)([C@H]2[C@@H](O)C[C@@]3(C)[C@@H]4C[C@H](O[C@@H]5O[C@H](CO)[C@@H](O)[C@H](O)[C@H]5O)[C@H]5C(C)(C)[C@@H](O[C@@H]6OC[C@@H](O)[C@H](O)[C@H]6O)CC[C@@]56C[C@@]46CC[C@]23C)O1` [Astragaloside A] was tested, and the “total neurite length per nucleus (z-score)” value was 1.12.
In the case of `Cc1ccc(O)c([C@H](CCN(C(C)C)C(C)C)c2ccccc2)c1` [Tolterodine tartrate], the “total neurite length per nucleus (z-score)” value is reported as -0.382.
For `CCNC(=O)C#Cc1ccc2c(C(=Nc3ccc(CN(C)C)cc3)c3ccccc3)c(O)[nH]c2c1`, the “total neurite length per nucleus (z-score)” value was -4.73.
In the case of `COc1ccc(-c2oc3c(CC=C(C)C)c(O[C@@H]4O[C@H](CO)[C@@H](O)[C@H](O)[C@H]4O)cc(O)c3c(=O)c2O[C@@H]2O[C@@H](C)[C@H](O)[C@@H](O)[C@H]2O)cc1` [Icariin], the “total neurite length per nucleus (z-score)” value is reported as -1.55.
With `N#Cc1ccc(-c2csc(NN=C3CCCC3)n2)cc1` [Remodelin] the “total neurite length per nucleus (z-score)” value was 0.379.
For `O=[N+]([O-])c1cn2c(n1)OC[C@@H](OCc1ccc(OC(F)(F)F)cc1)C2`, the “total neurite length per nucleus (z-score)” value was 0.774.
With `CN(C)C/C=C/C(=O)Nc1cc2c(Nc3ccc(F)c(Cl)c3)ncnc2cc1O[C@H]1CCOC1` [Afatinib (BIBW2992)] the “total neurite length per nucleus (z-score)” value was -2.08.
With `CC(=O)c1cc2c(o1)C(=O)c1ccccc1C2=O` [Napabucasin] the “total neurite length per nucleus (z-score)” value was 0.0943.
In the case of `NC(=O)c1noc([C@H](CCCC2CCCCC2)CC(=O)NO)n1`, the “total neurite length per nucleus (z-score)” value is reported as 0.766.
For `Cc1nc(C#Cc2ccnc(Cl)c2)c(C)n1-c1ccc(OC(F)(F)F)cc1`, the “total neurite length per nucleus (z-score)” value was 0.00831.
For `Cc1ccc(C(=O)Nc2ccc(CN3CCN(C)CC3)c(C(F)(F)F)c2)cc1C#Cc1cnc2[nH]ncc2c1`, the “total neurite length per nucleus (z-score)” value was -4.21.
For `Cc1cc(N2CCOCC2)cc2[nH]c(-c3c(NC[C@@H](O)c4cccc(Cl)c4)cc[nH]c3=O)nc12`, the “total neurite length per nucleus (z-score)” value was -0.693.
In the case of `COc1cc(/C=C/C(=O)CC(=O)/C=C/c2ccc(O)c(OC)c2)ccc1O` [Curcumin], the “total neurite length per nucleus (z-score)” value is reported as 0.249.
`C=CCc1cc(OC)c(O)c(C(=O)NCCO)c1` [Alibendol] was tested, and the “total neurite length per nucleus (z-score)” value was -0.193.
With `CC(C)(C)c1[nH]cnc1/C=c1\[nH]c(=O)/c(=C/c2ccccc2)[nH]c1=O` [Plinabulin (NPI-2358)] the “total neurite length per nucleus (z-score)” value was -3.11.
`Nc1ncnc2c1c(I)cn2[C@@H]1O[C@H](CO)[C@@H](O)[C@H]1O` [5-Iodotubercidin] was tested, and the “total neurite length per nucleus (z-score)” value was -1.83.
With `CN(C)CCC=C1c2ccccc2C=Cc2ccccc21` [Cyclobenzaprine HCl] the “total neurite length per nucleus (z-score)” value was -0.85.
`COc1cccc2c1C(=O)c1c(O)c3c(c(O)c1C2=O)C[C@@](O)(C(=O)CO)C[C@@H]3O[C@H]1C[C@H](N)[C@H](O[C@@H]2CCCCO2)[C@H](C)O1` [Pirarubicin] was tested, and the “total neurite length per nucleus (z-score)” value was -1.61.
In the case of `CC1=C(CC(=O)O)c2cc(F)ccc2/C1=C\c1ccc([S+](C)[O-])cc1` (stereo unspecified) [Sulindac], the “total neurite length per nucleus (z-score)” value is reported as 0.187.
With `O=C(O)CCC(=O)Nc1ccc(S(=O)(=O)Nc2nccs2)cc1` [Succinylsulfathiazole] the “total neurite length per nucleus (z-score)” value was 0.409.
In the case of `Nc1nc2n[nH]nc2c(=O)[nH]1` [Azaguanine-8], the “total neurite length per nucleus (z-score)” value is reported as -0.853.
